PubChem BioAssay AID602203, INSERM | 2012

Aim: 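Confirming genes that raise or lower cisplatin-induced death in A549 cells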 (follow-up of hits)
System: human A549 lung cancer cells
Reagent: siRNA pair against human genes
Challenge: cisplatin at a dose killing half of control-siRNA cells, given 48 h after transfection
Detection: 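Cisplatin at a dose killing 50% of control cells, 48 h post-transfection; each siRNA +1 protective, -1 sensitizing, 0 if toxic (LDH) or antiproliferative (WST-1); per-gene sum and mean death change versus control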
Direction: summed siRNA score for cisplatin death: higher = more siRNAs reduced cisplatin-induced cell death; change in cisplatin death versus control: higher = fewer cells died than in control
Rule for the call: In these data the active calls have summed siRNA score for cisplatin death at about -3 or lower, or at about 3 or higher
Here is a random part of 999 deposited reagents. 85 of them (8.5%) count as active. 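Unclear how single-siRNA scores of -1, 0 or +1 give the printed -4 to 4 range; calls lie near -3 or 3 and beyond.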 Entries without a mark were called inactive. Not stated in the record: the amount of reagent, the time to read-out, the dose of the treatment.

gene	summed siRNA score for cisplatin death	change in cisplatin death versus control (percentage points)
EPHB4	-2	
BTN3A2	-2	
CCDC144NL	-1	
GTF3C1	1	
PHTF1	0	
PRELID1P6	-1	
BCAN	0	
LOC390729	0	
PAX3	0	
AOX1	-1	
SLC52A1	2	
FBXO8	2	
IRF5	1	
SLC39A5	3 (active)	11
TBPL1	1	
SULF1	-2	
OR51I2	0	
OR4K13	1	
LOC388931	1	
LOC440202	0	
CHRNA4	-1	
CELSR1	1	
OVCH1	3 (active)	16.2
BPIFB1	-1	
POLR3G	0	
NUAK2	1	
LOC149224	2	
GDF5	-1	
HTR3C	-1	
NEK2	2	
HGD	-3 (active)	-10.4
DEFB4A	-3 (active)	-13.1
ABCB9	-2	
PSMC5	3 (active)	16.3
OMA1	1	
VN1R10P	0	
PRR23E	0	
TMPRSS3	1	
PAK2	1	
LOC402300	0	
COQ3	-1	
LETM1	-2	
SLC5A2	1	
LOC401937	-1	
SLC5A4	-1	
LOC441073	2	

Targets above whose gene name starts with H or h (2):
gene	summed siRNA score for cisplatin death	change in cisplatin death versus control (percentage points)
HTR3C	-1	
HGD	-3 (active)	-10.4

Next entries:
gene	summed siRNA score for cisplatin death	change in cisplatin death versus control (percentage points)
RAB11FIP2	-1	
UBE2L3	-3 (active)	-8.7
SNX13	-1	
LOC401860	0	
IKBKG	1	
ABCA9	0	
GRIA3	-2	
TTLL4	-1	
LOC440978	0	
DNM1P5	0	
DNAJC18	0	
DSG3	1	
CD151	-3 (active)	-9.12
ZDHHC9	-4 (active)	-12.4
TEX56P	0	
AXL	-1	
LOC283412	1	
ALG6	0	
APEH	0	
FBXO40	0	
DYNLT2	-3 (active)	-7.73
GUCA1A	-3 (active)	-6.71
TFEC	1	
AHCYL1	0	
TMEM131	1	
SHD	-1	
SOX11	-1	
